The target in experiment [1] is T1, monarch CRYPTOCHROME 2 (CRY2) (Danaus plexippus (endogenous in DpN1 cells and monarch brain)) (UniProt Q0QWP3).
T1 sequence: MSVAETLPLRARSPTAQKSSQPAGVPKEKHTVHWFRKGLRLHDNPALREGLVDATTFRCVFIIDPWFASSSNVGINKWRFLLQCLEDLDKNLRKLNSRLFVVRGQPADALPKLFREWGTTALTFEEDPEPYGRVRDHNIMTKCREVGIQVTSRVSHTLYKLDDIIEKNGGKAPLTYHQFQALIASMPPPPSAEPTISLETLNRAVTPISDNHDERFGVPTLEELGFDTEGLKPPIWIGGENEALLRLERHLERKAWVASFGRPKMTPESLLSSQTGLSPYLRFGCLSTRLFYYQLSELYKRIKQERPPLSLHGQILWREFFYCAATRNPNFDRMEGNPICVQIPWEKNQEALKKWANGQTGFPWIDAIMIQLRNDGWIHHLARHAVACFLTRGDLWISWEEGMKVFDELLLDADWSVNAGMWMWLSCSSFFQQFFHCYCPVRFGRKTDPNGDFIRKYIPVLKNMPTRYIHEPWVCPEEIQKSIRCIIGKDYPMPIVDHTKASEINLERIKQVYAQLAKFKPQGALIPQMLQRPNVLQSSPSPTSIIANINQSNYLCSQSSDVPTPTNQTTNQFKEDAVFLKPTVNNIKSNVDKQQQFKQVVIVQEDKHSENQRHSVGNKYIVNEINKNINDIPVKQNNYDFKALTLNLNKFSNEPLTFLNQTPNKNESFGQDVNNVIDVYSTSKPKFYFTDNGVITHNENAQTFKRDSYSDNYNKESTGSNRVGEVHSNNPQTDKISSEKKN
The experiment in a line: co-IP; monarch brain extract (brains from animals frozen at ZT 18, photoreceptor layers removed; same extraction buffer); rat anti-PER (R33), anti-TIM (R38) or anti-CRY2 (R41) on protein G sepharose, overnight at 4 °C; Western blot with guinea pig GP40, GP47, GP51; endogenous proteins. A general note: A western blot detects proteins with antibodies after separation by electrophoresis.

Amino acid sequences for entries named in this document (tags omitted). A change or cut given only in a name is not applied to a line headed by its entry.
UniProt Q7Z0C9: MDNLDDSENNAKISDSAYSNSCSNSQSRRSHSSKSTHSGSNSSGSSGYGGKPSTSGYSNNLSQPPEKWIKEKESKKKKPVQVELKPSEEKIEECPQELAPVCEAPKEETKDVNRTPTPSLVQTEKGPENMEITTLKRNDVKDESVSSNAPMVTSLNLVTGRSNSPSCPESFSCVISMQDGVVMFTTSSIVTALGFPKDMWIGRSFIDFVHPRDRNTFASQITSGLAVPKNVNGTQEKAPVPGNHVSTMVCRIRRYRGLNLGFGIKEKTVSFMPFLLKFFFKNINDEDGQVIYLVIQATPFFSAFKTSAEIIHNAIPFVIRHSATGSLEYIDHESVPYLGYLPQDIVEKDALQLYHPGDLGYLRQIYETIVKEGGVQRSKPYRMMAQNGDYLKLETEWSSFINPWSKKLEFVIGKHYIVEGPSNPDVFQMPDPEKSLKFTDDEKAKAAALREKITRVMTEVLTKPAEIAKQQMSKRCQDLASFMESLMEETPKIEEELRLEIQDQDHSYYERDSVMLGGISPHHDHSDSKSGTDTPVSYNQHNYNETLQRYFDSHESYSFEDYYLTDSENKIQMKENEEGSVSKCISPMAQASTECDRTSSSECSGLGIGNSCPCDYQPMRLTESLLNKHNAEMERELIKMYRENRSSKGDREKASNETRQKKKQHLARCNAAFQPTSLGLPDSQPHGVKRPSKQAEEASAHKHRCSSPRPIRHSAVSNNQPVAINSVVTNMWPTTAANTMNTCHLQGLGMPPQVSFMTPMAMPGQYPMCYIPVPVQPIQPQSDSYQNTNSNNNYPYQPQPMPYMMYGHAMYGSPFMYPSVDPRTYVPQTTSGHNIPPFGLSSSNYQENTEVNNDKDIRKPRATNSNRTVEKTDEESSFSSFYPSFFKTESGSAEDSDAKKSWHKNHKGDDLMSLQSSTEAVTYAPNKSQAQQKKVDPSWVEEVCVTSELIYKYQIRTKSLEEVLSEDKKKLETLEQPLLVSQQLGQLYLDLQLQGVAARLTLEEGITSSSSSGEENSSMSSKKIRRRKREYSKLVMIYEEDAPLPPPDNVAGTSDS

The target of experiment [2] is T1, monarch CRYPTOCHROME 2 (CRY2) (Danaus plexippus (endogenous in DpN1 cells and monarch brain)). Briefly: co-IP; DpN1 cell extract (20 mM HEPES pH 7.9, 5% glycerol, 100 mM KCl, 0.1% Triton X100); rat anti-PER (R33), anti-TIM (R38) or anti-CRY2 (R41) on protein G sepharose, overnight at 4 °C; Western blot with guinea pig GP40, GP47, GP51; endogenous proteins.
For experiment [3], the target named is monarch PERIOD (PER) (Danaus plexippus (endogenous in DpN1 cells and monarch brain)) (UniProt Q7Z0C9). The experiment in a line: co-IP; monarch brain extract (brains from animals frozen at ZT 18, photoreceptor layers removed; same extraction buffer); rat anti-PER (R33), anti-TIM (R38) or anti-CRY2 (R41) on protein G sepharose, overnight at 4 °C; Western blot with guinea pig GP40, GP47, GP51; endogenous proteins.

Experiment [4] deals with monarch TIMELESS (TIM) (Danaus plexippus (endogenous in DpN1 cells and monarch brain)). The experiment is described as above.
Experiment [5] deals with monarch PERIOD (PER) (Danaus plexippus (endogenous in DpN1 cells and monarch brain)) (UniProt Q7Z0C9). Briefly: co-IP; DpN1 cell extract (20 mM HEPES pH 7.9, 5% glycerol, 100 mM KCl, 0.1% Triton X100); rat anti-PER (R33), anti-TIM (R38) or anti-CRY2 (R41) on protein G sepharose, overnight at 4 °C; Western blot with guinea pig GP40, GP47, GP51; endogenous proteins.
Experiment [6] has as its target monarch TIMELESS (TIM) (Danaus plexippus (endogenous in DpN1 cells and monarch brain)). Described as above.

Among the data in PMC2174970 are binding values, retold here.

These are yes or no findings as the source states them, for the method shown. In cells and extracts the contact can be indirect. Binding can be weak; no strength is given.

“monarch PERIOD (PER) (from UniProt Q7Z0C9)”: the binding result in experiment [1] and in experiment [2] was “binds” in each case.

As to monarch TIMELESS (TIM), the binding result in experiment [1] and in experiment [2] was “binds” throughout.

B1: monarch CRYPTOCHROME 2 (CRY2) (protein, UniProt Q0QWP3 1-742)
chain: T1 sequence
For the molecule B1, the binding result in experiment [3], in experiment [4], in experiment [5] and in experiment [6] was “binds” in each case.
